In this test the target is Flag-KLF4 (human) (UniProt O43474). Kind of test: co-IP; HEK293T cells transfected with GFP-SENP3 and/or Flag-KLF4 plasmids for 36 h; Pierce IP Lysis buffer with protease inhibitors and 20 mM N-ethylmaleimide; anti-KLF4 or anti-Flag magnetic beads overnight at 4 °C; immunoblotting. In general terms: A western blot detects proteins with antibodies after separation by electrophoresis.

By UniProt entry, the sequences of proteins in these tests, tags left out.
UniProt O43474: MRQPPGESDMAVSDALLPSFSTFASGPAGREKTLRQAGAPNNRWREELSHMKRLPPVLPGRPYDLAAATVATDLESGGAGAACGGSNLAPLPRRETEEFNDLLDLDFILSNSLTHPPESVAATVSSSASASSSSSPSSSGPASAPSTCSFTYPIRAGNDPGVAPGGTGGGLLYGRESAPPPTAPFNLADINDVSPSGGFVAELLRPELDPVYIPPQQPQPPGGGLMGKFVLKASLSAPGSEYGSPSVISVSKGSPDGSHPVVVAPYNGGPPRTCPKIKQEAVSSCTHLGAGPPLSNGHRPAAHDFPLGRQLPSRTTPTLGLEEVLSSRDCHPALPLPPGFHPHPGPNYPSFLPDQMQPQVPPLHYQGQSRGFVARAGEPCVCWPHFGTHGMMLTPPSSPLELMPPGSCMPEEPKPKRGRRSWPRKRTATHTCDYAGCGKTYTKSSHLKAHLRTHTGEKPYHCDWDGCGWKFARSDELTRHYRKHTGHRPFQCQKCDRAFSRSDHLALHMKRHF
UniProt Q9H4L4: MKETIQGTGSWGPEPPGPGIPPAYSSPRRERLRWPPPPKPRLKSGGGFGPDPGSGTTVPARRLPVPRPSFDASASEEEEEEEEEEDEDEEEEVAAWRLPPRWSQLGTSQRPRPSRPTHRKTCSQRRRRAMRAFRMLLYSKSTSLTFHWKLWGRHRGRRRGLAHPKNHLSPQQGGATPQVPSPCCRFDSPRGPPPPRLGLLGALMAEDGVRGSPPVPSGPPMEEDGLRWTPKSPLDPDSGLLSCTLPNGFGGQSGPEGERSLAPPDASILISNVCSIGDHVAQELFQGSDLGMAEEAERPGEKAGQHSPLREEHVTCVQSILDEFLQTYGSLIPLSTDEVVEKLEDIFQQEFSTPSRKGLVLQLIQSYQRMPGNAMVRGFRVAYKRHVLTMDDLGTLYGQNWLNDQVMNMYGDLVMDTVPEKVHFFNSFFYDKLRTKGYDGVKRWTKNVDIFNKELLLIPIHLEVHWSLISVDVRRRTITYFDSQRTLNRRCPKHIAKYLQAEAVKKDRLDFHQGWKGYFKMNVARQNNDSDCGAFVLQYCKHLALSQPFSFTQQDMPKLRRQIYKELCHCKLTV

Results are given in words; binding and its absence hold for the method and conditions named. In cells and extracts the contact can be indirect. Some binding calls cover weakened binding; strength is not graded here.

On to “GFP-SENP3 (from UniProt Q9H4L4 1-574) (enzyme)”, for which the binding result was “binds”.

Values taken from article PMC12660617.
